Results from PMC9792466.
These are yes or no findings as the source states them, for the method shown. In cells and extracts the contact can be indirect. A result given as binding can be weak or reduced; the word gives no strength.

Sequences of proteins named here, by UniProt entry; tags and fusion partners are left off. A change or cut given only in a name is not applied to a line headed by its entry.
UniProt P21274: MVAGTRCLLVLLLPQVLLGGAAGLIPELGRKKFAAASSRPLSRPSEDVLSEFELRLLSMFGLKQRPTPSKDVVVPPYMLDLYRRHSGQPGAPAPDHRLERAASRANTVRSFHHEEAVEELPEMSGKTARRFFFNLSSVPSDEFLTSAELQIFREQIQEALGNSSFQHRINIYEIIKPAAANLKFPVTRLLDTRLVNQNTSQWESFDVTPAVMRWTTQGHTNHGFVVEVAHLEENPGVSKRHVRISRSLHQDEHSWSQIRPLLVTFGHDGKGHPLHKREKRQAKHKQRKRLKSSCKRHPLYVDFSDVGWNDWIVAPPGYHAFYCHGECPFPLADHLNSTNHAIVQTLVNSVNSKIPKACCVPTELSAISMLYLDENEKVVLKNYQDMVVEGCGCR

Biological target: T1, WW domain-containing oxidoreductase (WWOX) (mouse (endogenous in 266-6)) (UniProt Q91WL8)
T1 sequence: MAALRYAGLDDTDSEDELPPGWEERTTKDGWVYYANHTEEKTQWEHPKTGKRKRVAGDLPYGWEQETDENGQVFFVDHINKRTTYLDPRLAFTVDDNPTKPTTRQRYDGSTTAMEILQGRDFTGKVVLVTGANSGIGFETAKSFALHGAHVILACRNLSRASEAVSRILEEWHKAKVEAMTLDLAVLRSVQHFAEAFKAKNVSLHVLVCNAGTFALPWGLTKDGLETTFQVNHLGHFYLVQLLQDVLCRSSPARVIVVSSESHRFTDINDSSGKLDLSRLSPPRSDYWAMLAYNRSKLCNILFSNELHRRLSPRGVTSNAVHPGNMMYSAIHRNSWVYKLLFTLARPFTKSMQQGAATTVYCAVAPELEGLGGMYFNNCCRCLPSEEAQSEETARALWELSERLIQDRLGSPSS
Assay: co-IP; endogenous WWOX immunoprecipitated with monoclonal mouse anti-WWOX cocktail antibodies and protein A/G plus agarose beads, overnight at 4 °C, from whole-cell lysates of 266-6 KrasG12D cells not activated or activated with doxycycline for 24 h; lysis buffer 50 mM Tris pH 7.5, 150 mM NaCl, 10% glycerol, 1% NP-40; IgG as control; immunoblot of the precipitate

## BMP2 (from UniProt P21274)
  binding: binds
